Reference: PubChem BioAssay AID1347426 (Functional Genomics Laboratory (NCATS/FGL), 2020)
About 1,400 (4.5%) of roughly 31,000 sequences were called active.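 The calls were made as follows: active = median seed-adjusted z-score above 1 or below -1; inactive = the rest.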 Some of the results follow.

Experiment: Novel Modifiers of Survival Motor Neuron (SMN) Protein: Gene Identification via Genome-wide siRNA Screen;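 also: luminescence tracks full-length SMN protein made from the SMN2 reporter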
Settings: HEK293T SMN2-luciferase reporter, siRNA knockdown, 72 h; actives lie on both sides
Method in brief: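 HEK293T cells stably expressing an SMN2 splicing/cDNA-luciferase reporter were reverse-transfected with a druggable-genome siRNA library and read by luminescence at 72 hours; hits defined by MAD score above 1.0 or below -1.0.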

Sequence	median seed-adjusted z-score
AGAUUUCCCUGGGAUCUAUTT against COPS8	inactive: 0.148
GAACCGAACUUUACCAUUATT against XRN2	inactive: -0.312
CCCUGUCUGUGAAGCAUGATT against TXNDC2	active: -1.29
GGAUUAUCUAUUCAAGGAATT against RAD18	inactive: 0.562
CGACGAGAAGACCUAUUUATT against CAB39	inactive: -0.144
CCUUUACCAUGCUCAUUUATT against ASS1	inactive: 0.0886
GCAAGUACCUGUAAUUGAATT against KLF3	inactive: 0.628
CCAUGGAGACUUUCUACUATT against TUBB6	inactive: 0.63
GCACAUUAAAGGGCAAGAATT against GALM	inactive: -0.111
GGAAUCAACUAUUUCGAGATT against EZR	inactive: 0.0344
GGACCUCACCUCUACAGCATT against PSMB7	inactive: 0.131
GGACUAAACUACCUCCAAATT against KCNE3	active: -1.33
GCAAGUGUAUGGAUUAUUCTT against LARP6	inactive: 0.0335
GAAGGGAAAUGAGUACCGATT against TRIM68	inactive: -0.628
GAUCAGCACUCGAAGGUCATT against HNF4A	inactive: -0.0274
CACUAUAAAUGAUAUGACUTT against FOXQ1	inactive: 0.369
CAUUAGCCCAGGUAUCUAUTT against CREB1	inactive: 0.391
CAUUUCCAUUGGUUAUUUATT against AK1	inactive: -0.0471
GAGGAACAGGAAUAACAUUTT against GCG	active: -1.18
GCUGCAUUGUGGGUGAUGATT against PTGIR	inactive: -0.0806
CCAUGACUGUCAAUCGUCATT against GFM1	inactive: -0.0641
GAAAGAUGGUUACCGAAUATT against RYK	inactive: -0.446

Part of the list above, in markdown:

| Sequence | median seed-adjusted z-score |
| --- | --- |
| GAACCGAACUUUACCAUUATT against XRN2 | inactive: -0.312 |
| GGAUUAUCUAUUCAAGGAATT against RAD18 | inactive: 0.562 |
| GAAGGGAAAUGAGUACCGATT against TRIM68 | inactive: -0.628 |

Next results follow:

Sequence	median seed-adjusted z-score
GCCUAACCCGGAGAACUUUTT against CYP1B1	inactive: -0.261
GUUCCUUAUUGUUAAGGUATT against PCDHB10	inactive: -0.09
GGUGAAUACUUCCGGUACATT against SULT2B1	inactive: 0
AGGUGGAAGAUCUUAAAAATT against USF1	inactive: 0.16
CGUGGGAUGGGAUGAAAGATT against NDUFB11	inactive: 0.014
CUACUGGUGUAUUACAUGATT against XK	inactive: 0.403
GCUAGUAUCUCUUAUCUCATT against SLC18A2	inactive: 0.777
CAAAGGACCUUGUCUGGUUTT against SPDYA	inactive: 0.351
GCAUCGACUAUGAUGAGUUTT against TNNC1	inactive: 0.442
GCAUCUACAAGGUUGUGAATT against UHRF1	inactive: 0.231
CGGCUCCUCUUACAACUAUTT against KCTD5	inactive: -0.748
CCAUCACGGUCUCAGCUCATT against CPNE1	inactive: -0.0206
GAUUGAAGAGGGCAGUAAATT against SHROOM2	inactive: 0.11
GGUUAGAGACUUGACAAUATT against DARS	inactive: 0
CAGUGGAUCAAAUAACGCATT against ADAMTS20	active: 1.44
GACCGGCUAUUCGAAAUUATT against TNFRSF21	inactive: 0.225
GACCAUGAAUUUCAUUGUATT against MYLK3	inactive: 0.316
GGACCGAAAUUCCUUCGAATT against FAT1	inactive: -0.00397
CAGUUUCAAUUAAAUCGAUTT against HELZ	inactive: 0.0778
CCCUUGAAGGCAAAGAUCATT against OPRK1	active: -1.08
CCAAAGCCCUGUCUAUCUATT against ZNF547	inactive: 0.099
CGUACAUCCAGUGACCCUATT against MTMR4	inactive: -0.735

Sequence	median seed-adjusted z-score
GGCAAUACCUGUCUGGACATT against SIRPB2	inactive: 0
GCAAGGCGGUGUUUAUGGATT against DLX1	inactive: 0.0356
GCGUGAACACUUCAUGUCATT against PDSS2	inactive: 0.111
GUGUGGAACUUGGACAAAATT against NETO1	inactive: 0.0504
GGAUGUUCGUCAUAUUGAATT against IRAK3	inactive: 0.155
GAAUGACCAGAGACAUCUATT against INSR	inactive: 0.172
CCUUUAGACAGAUUAGACATT against ZNF642	inactive: 0.169
GCAACAAGAGAGUACAAGATT against TNPO1	inactive: 0.688
GCACAAACCUCACAAGUCATT against ZNF554	inactive: 0.0311
CCACAAUUAGAGAUCUUUATT against THUMPD2	inactive: -0.129
CUCUGCCUCUCUACCCUUATT against F2RL1	inactive: 0.138
GGCUAGCCCUAGUAUGGAATT against CCAR1	active: -1.18
GAAUUACUGCAACGAAAUATT against PDCD6IP	inactive: 0
GCUGGAAGCUGUGAAGUCATT against NR1I3	inactive: 0.000933
GAAUUACGAGCAGAACAAATT against CHSY1	inactive: 0.247
GCAUACCAGUGUUUCCUCATT against CRNN	inactive: -0.0758
GACUUUCACUACAAGCAGATT against DUSP9	inactive: 0.61
GCGUGAAUGAGGUGGAUUATT against ETNK2	inactive: -0.74
CAAAUUGAUAGAUCCCAAATT against HNRPDL	inactive: -0.68
GGAGCAAGCGGGUUGUUAUTT against CAMK2N1	inactive: 0
GGAAGGUUGCUAUAGUGGATT against SSX2IP	inactive: -0.0799
GCGUGAUACUGUACGCAGATT against PROS1	inactive: 0.436

Copied from the list.
GCACAAACCUCACAAGUCATT against ZNF554 – median seed-adjusted z-score: inactive: 0.0311
GAAUUACGAGCAGAACAAATT against CHSY1 – median seed-adjusted z-score: inactive: 0.247
GGAGCAAGCGGGUUGUUAUTT against CAMK2N1 – median seed-adjusted z-score: inactive: 0

Further entries follow.

Sequence	median seed-adjusted z-score
GCUGCUUAAGAGAUACUGATT against PRKCQ	inactive: 0.692
GCAGUUACCCGCAUACCAATT against CALCR	inactive: -0.404
GCAACAUCAUUGUGAUUUUTT against GPR21	inactive: 0.246
CGGUAUCUAUGACACUGCATT against SLC25A5	inactive: -0.0501
GACAUAUGCAAGAACUAUATT against PSAP	inactive: 0.107
GGACAUGAACCUAGAGUAATT against RBM45	inactive: -0.234
CACUACAACUCAUCCAACATT against GCDH	inactive: -0.0391
GAGUUCGUCGAAUCCCAAATT against SETMAR	inactive: 0.191
GCUUCUAACAUCAAGAUGATT against GABRR3	inactive: 0.368
GGAGCAUAAAGUAGACCGATT against ABCA10	inactive: -0.104
AGCUACAAUUUGAAAGAGATT against RNF144A	inactive: -0.185
GUAGAGUGCUUCAACAAGATT against ECH1	inactive: 0.0348
UCUUCGUGGUCACCAGUAATT against FUT2	inactive: -0.878
GAGCAGAAAGGAUCACAGATT against TOR1A	inactive: -0.231
GCUGUAAGCUAAGAACCCATT against SARS2	inactive: 0.524
GCACUCUGCUCAACACCUATT against GJA5	inactive: 0.707
GGAUCGAGACUUCAUAUCATT against CLSTN2	inactive: 0
GAACAUCCGUGAGCAAGGATT against KCNJ8	inactive: 0.329
CUAUCGAACGAGUAGCUUUTT against KCTD3	inactive: 0.603
CCUUCGCCGUCGUCUCAAATT against MCOLN1	inactive: -0.522
GAACUUCCUCCUGUACAGATT against B3GNT3	inactive: 0.439
GCAUUGCAUGAGAAGGUCATT against 5-Sep	inactive: -0.0749

Sequence	median seed-adjusted z-score
GCUCCUGUAUGAAUGCAAUTT against FBP2	inactive: 0
CAGGUUGCAUGGUCAAUAATT against DHRS12	inactive: 0.118
CCACUUUCCAUUUGCGAUATT against HEATR1	inactive: -0.115
GCUUAUGAACUGCUUCAUUTT against ST3GAL6	inactive: -0.548
CUUUCGUAUUUCAACAAGATT against CBLL1	inactive: -0.466
AAAUAUCAACGAGAACUUUTT against DNPEP	inactive: -0.293
GAUCUGCAUCAAUACUGAATT against FBLN5	inactive: -0.0832
GACUUCUCCGGAAUCCGUATT against ADAM10	inactive: 0.14
GGACCUACUAUGUCUCCUATT against GRINA	inactive: 0.175
CCACGAAAGUCAUUACCUUTT against GTPBP1	inactive: -0.18
GCCUCGUGGUUUGACAACATT against CTDSP1	inactive: 0.28
GAUAAAGACUCUGCACAAATT against ZCRB1	inactive: 0.265
GACGAGCUAUUUGCCGAGATT against RAP2B	inactive: -0.22
AGCGGAUGGGUGUCACAAATT against FUT5	inactive: 0
CCUUAAAAAUUACCGAAAATT against CDKN3	inactive: -0.03
CGAAGUACCAAAAAGUUGATT against USP21	inactive: 0.248
GGUAAGAUGUCGAUCCUUATT against NAE1	inactive: -0.453
GAUACAGUUUUGGAUGAUATT against ASNSD1	inactive: 0.437
GGUUUGGUCGUAUUCCUAATT against NR1D2	inactive: 0.0523
GACCAACAUGAGUACUCAATT against ZNF560	inactive: 0.0927
